Source: US12240890B2, “Compositions and methods for treating and/or preventing pathogenic fungal infection and for maintenance of microbiome commensalism” (priority 2017, dated 2025)
At least one compound was matched to its structure with a doubt left.

System: PYY
Test: ex vivo ileal tissue culture and PYY ELISA
Parameters: species or system mice
Description: Tissues were harvested from conventional or germ-free WT mice. Three cm sections of distal ileum were dissected from the mesentery and ligated on one end. Next, Krebs buffer (pH 7.4) was inoculated with either LPS (100 ng/mL) or Carbamoylcholine (10 um) and sealed in the ileal section and incubated in Krebs at 37° C. for 30 minutes. Next, the luminal solutions were retrieved and centrifuged at 3000×g for 3 minutes to remove particulate.

Structure (SMILES): C[N+](C)(C)CCOC(N)=O [Carbamoylcholine]
- luminal PYY release (Germ-free (GF) tissues): released only in response to Carb
- luminal PYY release (Specific-Pathogen Free (SPF) tissues): released PYY
